From paper PMC12220937
Results are given in words; binding and its absence hold for the method and conditions named. In cells and extracts the contact can be indirect. Some binding calls cover weakened binding; strength is not graded here. Where a sequence is shown, tags or fusion partners need not be part of it.

Chains of the proteins cited; added tags and fusions are not shown. Lines headed by an entry give the natural chain unless they say otherwise; changes in a name come on top. A line that says so, or that is headed by a name, gives the form on record, which may keep a tag or linker.
UniProt P52946: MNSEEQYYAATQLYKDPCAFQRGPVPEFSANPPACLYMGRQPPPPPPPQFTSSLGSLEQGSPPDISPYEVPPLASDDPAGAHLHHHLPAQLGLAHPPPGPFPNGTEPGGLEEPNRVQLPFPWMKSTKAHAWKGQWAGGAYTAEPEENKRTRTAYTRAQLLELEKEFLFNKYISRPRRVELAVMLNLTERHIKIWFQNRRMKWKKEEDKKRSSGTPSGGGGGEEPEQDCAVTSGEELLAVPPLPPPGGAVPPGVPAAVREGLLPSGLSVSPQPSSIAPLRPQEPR
HA-tagged mouse Pdx1 Thr152Met (P52946, form named): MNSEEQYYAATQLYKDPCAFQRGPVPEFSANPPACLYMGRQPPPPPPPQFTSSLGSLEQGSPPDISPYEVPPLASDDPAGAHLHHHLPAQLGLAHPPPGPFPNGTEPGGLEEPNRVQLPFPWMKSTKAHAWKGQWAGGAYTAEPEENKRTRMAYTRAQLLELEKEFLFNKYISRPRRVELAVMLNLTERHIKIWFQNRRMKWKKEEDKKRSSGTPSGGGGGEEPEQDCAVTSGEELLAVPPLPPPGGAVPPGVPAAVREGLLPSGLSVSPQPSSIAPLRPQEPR

Target: T1, Flag-tagged mouse Oc1 (ONECUT1) (mouse) (UniProt O08755)
T1 sequence: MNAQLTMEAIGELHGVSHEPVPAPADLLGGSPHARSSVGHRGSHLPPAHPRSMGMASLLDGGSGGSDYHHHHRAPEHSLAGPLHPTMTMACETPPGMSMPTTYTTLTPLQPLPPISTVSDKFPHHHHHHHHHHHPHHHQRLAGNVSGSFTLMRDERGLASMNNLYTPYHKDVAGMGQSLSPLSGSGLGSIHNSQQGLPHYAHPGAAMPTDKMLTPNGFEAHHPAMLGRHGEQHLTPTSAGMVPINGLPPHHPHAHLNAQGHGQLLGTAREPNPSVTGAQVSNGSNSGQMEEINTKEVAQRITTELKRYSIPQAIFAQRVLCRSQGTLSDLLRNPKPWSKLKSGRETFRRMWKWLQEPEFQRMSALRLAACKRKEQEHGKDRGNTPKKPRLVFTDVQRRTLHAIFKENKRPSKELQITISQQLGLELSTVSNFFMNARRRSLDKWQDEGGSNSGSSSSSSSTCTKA
Assay: co-IP; HA-tagged mouse Pdx1 variants and Flag-tagged mouse Oc1 coexpressed in human embryonic kidney 293T cells; co-IP/Western blot with mouse anti-Flag and rabbit anti-PDX1; n = 3; which protein was precipitated not given

HA-tagged mouse Pdx1 (wild type) (from UniProt P52946 1-284)
binding: binds

HA-tagged mouse Pdx1 Thr152Met (from UniProt P52946 1-284)
binding: binds
